Results are given in words; binding and its absence hold for the method and conditions named. Some results given as binding are weak or reduced against the parent protein; the word gives no strength.
Columns and labels:
[1] = biological target: Gal4 DB domain fused to the full length survivin peptid (pDBLeu-Survivin) (human) (UniProt O15392); experiment: yeast two-hybrid screen with pDBLeu-Survivin as bait; confirmed by beta-galactosidase filter assay and growth on selective medium
[2] = biological target: Gal4 DB domain fused to the full length survivin peptid (pDBLeu-Survivin) (human) (UniProt O15392); experiment: yeast two-hybrid screen with pDBLeu-Survivin as bait

Chains of the proteins cited; added tags and fusions are not shown.
UniProt O15392: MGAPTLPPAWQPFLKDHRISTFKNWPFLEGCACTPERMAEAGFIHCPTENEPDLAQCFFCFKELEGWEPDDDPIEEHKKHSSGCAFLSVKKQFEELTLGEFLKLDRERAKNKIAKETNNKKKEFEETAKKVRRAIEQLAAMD

B1: Survivin interacting protein TPR1 (ligand)
chain: MAAVLQQVLERTELNKLPKSVQNKLEKFLADQQSEIDGLKGRHEKFKVESEQQYFEIEKRLSHSQERLVNETRECQSLRLELEKLNNQLKALTEKNKELEIAQDRNIAIQSQFTRTKEELEAEKRDLIRTNERLSQELEYLTEDVKRLNEKLKESNTTKGELQLKLDELQASDVSVKYREKRLEQEKELLHSQNTWLNTELKTKTDELLALGREKGNEILELKCNLENKKEEVSRLEEQMNGLKTSNEHLQKHVEDLLTKLKEAKEQQASMEEKFHNELNAHIKLSNLYKSAADDSEAKSNELTRAVEELHKLLKEAGEANKAIQDHLLEVEQSKDQMEKEMLEKIGRLEKELENANDLLSATKRKGAILSEEELAAMSPTAAAVAKIVKPGMKLTELYNAYVETQDQLLLEKLENKRINKYLDEIVKEVEAKAPILKRQREEYERAQKAVASLSVKLEQAMKEIQRLQEDTDKANKQSSVLERDNRRMEIQVKDLSQQIRVLLMELEEARGNHVIRDEEVSSADISSSSEVISQHLVSYRNIEELQQQNQRLLVALRELGETREREEQETTSSKITELQLKLESALTELEQLRKSRQHQMQLVDSIVRQRDMYRILLSQTTGVAIPLHASSLDDVSLASTPKRPSTSQTVSTPAPVPVIESTEAIEAKAALKQLQEIFENYKKEKAENEKIQNEQLEKLQEQVTDLRSQNTKISTQLDFASKRYL
binding [1]: binds | binding [2]: binds
